Article PMC5269733
These are yes or no findings as the source states them, for the method shown. In cells and extracts the contact can be indirect. Some binding calls cover weakened binding; strength is not graded here. For some of these results: Sequences can lack the tags named with a protein.

Protein sequences, listed by entry. Tags and fused reporters are not part of them.
UniProt Q09472: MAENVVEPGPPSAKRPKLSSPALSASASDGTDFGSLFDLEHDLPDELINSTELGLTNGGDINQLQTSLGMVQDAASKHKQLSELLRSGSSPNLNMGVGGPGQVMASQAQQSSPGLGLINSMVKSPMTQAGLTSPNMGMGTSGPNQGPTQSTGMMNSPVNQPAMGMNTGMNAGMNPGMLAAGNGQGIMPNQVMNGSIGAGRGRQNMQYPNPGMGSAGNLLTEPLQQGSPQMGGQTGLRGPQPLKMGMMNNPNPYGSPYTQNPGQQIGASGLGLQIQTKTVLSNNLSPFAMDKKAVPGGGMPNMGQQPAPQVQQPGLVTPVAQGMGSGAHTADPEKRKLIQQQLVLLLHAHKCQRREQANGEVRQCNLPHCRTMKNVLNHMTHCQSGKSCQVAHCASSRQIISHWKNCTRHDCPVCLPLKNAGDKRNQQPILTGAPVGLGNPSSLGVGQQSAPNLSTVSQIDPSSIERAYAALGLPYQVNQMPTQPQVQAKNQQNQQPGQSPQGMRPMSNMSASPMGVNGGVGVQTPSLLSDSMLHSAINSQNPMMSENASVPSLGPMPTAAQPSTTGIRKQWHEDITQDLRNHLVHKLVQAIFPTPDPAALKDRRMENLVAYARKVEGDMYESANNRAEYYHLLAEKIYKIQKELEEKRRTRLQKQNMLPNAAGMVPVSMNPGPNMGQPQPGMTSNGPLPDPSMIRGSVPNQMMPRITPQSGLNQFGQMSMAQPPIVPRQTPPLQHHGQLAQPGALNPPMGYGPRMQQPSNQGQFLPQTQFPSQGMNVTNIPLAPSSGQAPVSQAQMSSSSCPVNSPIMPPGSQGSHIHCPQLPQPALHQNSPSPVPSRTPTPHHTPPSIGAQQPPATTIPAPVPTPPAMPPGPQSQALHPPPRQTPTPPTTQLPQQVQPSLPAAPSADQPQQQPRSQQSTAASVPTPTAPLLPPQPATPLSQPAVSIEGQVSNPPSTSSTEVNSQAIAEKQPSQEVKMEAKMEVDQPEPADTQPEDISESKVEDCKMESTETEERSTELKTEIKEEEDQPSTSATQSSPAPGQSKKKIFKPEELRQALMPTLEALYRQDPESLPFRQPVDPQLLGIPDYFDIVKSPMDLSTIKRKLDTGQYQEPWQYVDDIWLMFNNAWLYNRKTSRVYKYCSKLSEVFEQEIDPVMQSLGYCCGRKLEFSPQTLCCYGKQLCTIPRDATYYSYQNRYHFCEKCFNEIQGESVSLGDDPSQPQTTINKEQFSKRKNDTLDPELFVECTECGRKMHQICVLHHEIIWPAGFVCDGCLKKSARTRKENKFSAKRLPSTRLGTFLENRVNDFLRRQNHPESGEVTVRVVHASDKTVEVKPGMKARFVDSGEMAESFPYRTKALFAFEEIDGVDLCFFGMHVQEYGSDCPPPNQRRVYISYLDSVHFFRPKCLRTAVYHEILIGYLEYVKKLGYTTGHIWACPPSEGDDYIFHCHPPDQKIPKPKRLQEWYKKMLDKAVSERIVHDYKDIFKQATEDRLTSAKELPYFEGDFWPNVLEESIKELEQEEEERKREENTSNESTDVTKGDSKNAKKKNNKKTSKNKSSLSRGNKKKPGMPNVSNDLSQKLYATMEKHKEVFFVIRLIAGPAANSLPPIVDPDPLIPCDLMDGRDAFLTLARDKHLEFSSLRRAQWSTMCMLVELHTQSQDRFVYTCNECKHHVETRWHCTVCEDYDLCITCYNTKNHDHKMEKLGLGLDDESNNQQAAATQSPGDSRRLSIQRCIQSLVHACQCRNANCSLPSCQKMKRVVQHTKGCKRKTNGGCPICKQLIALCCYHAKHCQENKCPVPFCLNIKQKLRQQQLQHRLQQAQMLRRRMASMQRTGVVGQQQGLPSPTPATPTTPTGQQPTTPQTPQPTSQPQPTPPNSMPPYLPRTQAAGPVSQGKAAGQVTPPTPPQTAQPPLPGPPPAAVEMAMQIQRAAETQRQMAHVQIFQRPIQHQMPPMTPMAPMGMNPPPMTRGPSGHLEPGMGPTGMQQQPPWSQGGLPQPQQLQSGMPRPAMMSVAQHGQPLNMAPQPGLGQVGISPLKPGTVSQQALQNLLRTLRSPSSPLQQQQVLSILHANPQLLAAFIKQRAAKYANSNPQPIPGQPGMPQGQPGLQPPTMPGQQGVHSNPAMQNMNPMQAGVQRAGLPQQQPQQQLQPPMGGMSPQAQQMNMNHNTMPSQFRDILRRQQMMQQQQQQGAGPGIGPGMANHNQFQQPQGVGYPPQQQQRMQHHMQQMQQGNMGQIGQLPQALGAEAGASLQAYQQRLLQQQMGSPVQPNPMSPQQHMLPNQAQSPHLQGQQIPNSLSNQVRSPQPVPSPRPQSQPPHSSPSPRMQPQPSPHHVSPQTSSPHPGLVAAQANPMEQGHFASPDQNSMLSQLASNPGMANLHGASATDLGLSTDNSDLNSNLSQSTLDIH
UniProt Q92793: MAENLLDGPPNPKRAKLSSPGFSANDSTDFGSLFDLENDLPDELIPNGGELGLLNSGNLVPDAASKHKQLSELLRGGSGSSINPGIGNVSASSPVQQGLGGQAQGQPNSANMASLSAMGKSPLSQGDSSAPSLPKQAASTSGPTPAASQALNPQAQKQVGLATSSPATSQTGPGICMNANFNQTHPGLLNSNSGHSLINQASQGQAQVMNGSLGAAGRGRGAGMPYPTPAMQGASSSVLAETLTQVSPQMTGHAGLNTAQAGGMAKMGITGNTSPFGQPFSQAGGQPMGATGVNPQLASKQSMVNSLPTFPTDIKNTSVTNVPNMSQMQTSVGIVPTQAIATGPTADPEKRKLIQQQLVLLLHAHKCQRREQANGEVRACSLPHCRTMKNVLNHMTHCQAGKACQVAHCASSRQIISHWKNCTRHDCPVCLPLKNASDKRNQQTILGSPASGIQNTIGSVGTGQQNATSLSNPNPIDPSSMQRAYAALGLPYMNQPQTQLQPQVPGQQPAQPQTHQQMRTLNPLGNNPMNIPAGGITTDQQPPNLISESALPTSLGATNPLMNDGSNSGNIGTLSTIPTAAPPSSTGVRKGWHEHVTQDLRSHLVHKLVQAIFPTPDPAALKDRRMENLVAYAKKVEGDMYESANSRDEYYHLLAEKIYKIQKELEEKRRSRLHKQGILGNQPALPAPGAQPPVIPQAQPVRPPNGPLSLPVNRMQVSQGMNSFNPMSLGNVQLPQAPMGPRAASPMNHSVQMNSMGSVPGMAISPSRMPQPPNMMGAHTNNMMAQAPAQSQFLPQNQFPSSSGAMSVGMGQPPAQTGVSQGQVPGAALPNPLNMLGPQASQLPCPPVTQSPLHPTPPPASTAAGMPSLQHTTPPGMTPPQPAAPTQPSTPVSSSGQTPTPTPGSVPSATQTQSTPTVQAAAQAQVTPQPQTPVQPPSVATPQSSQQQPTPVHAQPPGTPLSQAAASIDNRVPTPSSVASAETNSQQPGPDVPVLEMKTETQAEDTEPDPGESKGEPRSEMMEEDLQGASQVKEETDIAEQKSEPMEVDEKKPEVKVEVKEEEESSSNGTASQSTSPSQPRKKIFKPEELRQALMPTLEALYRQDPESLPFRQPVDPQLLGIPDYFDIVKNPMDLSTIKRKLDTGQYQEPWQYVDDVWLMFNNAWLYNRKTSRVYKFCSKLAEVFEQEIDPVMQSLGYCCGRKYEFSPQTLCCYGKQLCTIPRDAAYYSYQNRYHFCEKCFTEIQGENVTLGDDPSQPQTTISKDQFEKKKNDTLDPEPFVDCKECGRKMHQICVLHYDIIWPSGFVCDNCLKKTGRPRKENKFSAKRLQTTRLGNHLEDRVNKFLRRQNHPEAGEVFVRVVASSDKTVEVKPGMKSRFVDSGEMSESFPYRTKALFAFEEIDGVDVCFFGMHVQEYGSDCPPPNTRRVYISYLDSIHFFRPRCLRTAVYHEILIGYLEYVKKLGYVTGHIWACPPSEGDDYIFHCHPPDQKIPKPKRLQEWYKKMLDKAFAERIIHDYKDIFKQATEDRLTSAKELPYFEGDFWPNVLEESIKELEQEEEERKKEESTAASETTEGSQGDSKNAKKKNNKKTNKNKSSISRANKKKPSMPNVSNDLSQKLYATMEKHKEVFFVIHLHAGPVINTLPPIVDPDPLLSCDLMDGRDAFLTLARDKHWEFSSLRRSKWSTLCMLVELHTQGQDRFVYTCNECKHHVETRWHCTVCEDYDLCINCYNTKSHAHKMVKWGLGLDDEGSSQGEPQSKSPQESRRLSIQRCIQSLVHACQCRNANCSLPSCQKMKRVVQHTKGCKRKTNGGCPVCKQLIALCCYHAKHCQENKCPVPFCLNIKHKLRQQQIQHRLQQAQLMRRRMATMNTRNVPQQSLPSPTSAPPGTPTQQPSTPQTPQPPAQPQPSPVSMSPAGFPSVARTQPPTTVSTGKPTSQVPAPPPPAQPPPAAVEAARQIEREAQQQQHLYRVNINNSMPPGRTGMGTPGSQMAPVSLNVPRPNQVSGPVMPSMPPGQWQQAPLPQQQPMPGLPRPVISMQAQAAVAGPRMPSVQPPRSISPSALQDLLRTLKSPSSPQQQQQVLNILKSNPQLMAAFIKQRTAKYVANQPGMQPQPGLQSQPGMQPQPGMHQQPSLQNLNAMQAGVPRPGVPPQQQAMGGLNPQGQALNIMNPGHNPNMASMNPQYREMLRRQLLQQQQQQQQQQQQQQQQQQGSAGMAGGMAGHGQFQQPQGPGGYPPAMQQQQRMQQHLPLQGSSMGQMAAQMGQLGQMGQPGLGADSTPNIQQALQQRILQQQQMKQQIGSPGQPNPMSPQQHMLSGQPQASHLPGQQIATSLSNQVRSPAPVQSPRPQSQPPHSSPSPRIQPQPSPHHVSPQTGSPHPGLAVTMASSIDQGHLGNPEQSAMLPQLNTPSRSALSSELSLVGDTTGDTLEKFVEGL
UniProt O00571: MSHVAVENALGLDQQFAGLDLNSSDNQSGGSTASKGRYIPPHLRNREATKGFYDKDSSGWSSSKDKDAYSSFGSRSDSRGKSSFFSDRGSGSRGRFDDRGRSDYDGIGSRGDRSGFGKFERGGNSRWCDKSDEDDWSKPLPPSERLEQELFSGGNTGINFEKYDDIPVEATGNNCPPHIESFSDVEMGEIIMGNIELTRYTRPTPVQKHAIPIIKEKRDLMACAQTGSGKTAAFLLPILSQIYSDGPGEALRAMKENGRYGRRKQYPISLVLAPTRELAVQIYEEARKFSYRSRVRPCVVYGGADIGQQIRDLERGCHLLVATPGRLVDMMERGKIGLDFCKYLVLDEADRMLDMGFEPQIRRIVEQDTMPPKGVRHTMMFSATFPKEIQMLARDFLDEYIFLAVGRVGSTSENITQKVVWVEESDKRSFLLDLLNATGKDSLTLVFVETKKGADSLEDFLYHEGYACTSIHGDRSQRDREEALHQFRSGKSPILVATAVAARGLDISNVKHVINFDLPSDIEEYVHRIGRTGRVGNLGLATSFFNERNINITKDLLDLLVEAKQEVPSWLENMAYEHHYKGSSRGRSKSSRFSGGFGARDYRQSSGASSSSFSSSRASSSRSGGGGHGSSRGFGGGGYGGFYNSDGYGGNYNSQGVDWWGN

Assays:
[1] = target: T1, HA-tagged SHP (small heterodimer partner) (UniProt Q15466); experiment: co-IP; RNase A-treated nuclear extracts (200 ug) of HuH7 cells co-expressing Flag-DDX3 with HA-SHP or HA-HNF4; anti-HA agarose or anti-Flag M2 resin; 20 mM Tris-HCl pH 7.5, 150 mM NaCl, 10% glycerol, 1% Triton X-100, 4 C overnight
T1 sequence: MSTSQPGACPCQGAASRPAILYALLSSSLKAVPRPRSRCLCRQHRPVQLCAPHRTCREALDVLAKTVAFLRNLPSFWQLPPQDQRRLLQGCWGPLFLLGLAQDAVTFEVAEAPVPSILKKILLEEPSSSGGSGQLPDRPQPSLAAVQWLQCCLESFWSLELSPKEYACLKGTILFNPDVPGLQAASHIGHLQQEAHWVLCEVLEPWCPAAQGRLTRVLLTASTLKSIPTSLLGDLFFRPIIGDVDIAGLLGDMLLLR

[2] = target: T2, Flag-tagged HNF4 (UniProt P41235); experiment: co-IP; competition assay: purified GST-DDX3 (0, 5 and 10 ug) added to washed anti-Flag M2 beads that held Flag-HNF4 with HA-SHP from HuH7 lysate; blot with anti-DDX3; only the binder purified
T2 sequence: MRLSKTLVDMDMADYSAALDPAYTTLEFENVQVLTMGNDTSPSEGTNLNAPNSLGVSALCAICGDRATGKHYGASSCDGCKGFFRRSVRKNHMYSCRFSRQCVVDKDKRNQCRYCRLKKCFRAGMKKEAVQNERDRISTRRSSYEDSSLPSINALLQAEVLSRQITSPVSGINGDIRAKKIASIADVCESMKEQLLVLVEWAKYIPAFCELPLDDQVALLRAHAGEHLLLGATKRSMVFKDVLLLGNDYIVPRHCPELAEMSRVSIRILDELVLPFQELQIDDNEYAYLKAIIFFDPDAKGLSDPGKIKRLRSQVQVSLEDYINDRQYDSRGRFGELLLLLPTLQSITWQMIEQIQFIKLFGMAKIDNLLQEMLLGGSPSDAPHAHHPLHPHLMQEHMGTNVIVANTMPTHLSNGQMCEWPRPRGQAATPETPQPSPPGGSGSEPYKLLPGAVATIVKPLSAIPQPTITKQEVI

[3] = target: p300 (human (endogenous in HuH7)) (UniProt Q09472); experiment: co-IP; nuclear extracts (200 ug) of HuH7 cells expressing HA-DDX3; antibodies against endogenous CBP or p300 on protein G Sepharose; anti-HA blot; IgG as control
[4] = target: CREB-binding protein (CBP) (human (endogenous in HuH7)) (UniProt Q92793); experiment: as above

Flag-tagged DDX3 (from UniProt O00571 1-662)
binding [1]: binds

GST-tagged full length DDX3 (from UniProt O00571 1-662)
binding [2]: binds

HA-tagged DDX3 (from UniProt O00571 1-662)
binding [3]: binds
binding [4]: binds
